Patent US20210340278A1
These are yes or no findings as the source states them, for the method shown. For part of these data: In cells and extracts the contact can be indirect. Some results given as binding are weak or reduced against the parent protein; the word gives no strength. One block for each molecule: values may come before it.

The chains behind the UniProt entries cited, without tags or fusion partners. Residues count along the entry.
UniProt Q15363, residues 21-201: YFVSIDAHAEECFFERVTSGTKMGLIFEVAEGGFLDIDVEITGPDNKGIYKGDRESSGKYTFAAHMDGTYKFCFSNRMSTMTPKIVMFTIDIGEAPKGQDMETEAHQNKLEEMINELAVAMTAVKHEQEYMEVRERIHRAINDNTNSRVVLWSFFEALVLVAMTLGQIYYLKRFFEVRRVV

Key:
[1] = biological target: TMED2, human (human) (UniProt Q15363); assay: co-immunoprecipitation, AGR2 WT compared with AGR2 AA
[2] = biological target: TMED2, human (human) (UniProt Q15363); assay: co-immunoprecipitation from HEK293T cells, control or treated with tunicamycin
[3] = biological target: T1, Anterior gradient 2 (AGR2), human, wild type (human), O95994; assay: DSP chemical cross-linking in cells, Western blot under non-reducing or reducing conditions, AGR2 siRNA control; details: remark: other sources report otherwise
T1 chain: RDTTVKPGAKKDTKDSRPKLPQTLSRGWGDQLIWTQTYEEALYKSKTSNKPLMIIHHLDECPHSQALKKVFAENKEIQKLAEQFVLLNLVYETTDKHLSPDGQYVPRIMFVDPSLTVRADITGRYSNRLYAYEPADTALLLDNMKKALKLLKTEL

binding [1]: binds
binding [2]: binds
Molecule: Anterior gradient 2 (AGR2), human, wild type (from UniProt O95994 21-175)

binding [3]: binds
B1: Anterior gradient 2 (AGR2), human, wild type, O95994 21-175 (protein)
chain: T1 chain
